Test results: PubChem BioAssay AID298 (DTP/NCI, 2004)
The list is a part of this screen's results and no random one: it gathers tests that were run many times, whatever their T/C, doses with no T/C, and many T/C values between a quarter and a half above the control. Further doses and runs are listed elsewhere. T/C is the treated group as % of the vehicle group. Schedule codes are those of the source, read here as Q, the interval in days (D) or hours (H), X, the number of doses. Some doses have a count of surviving animals in place of a T/C: the source files T/C as zero there, which appears to mark a toxic dose or a test without result, not a measured value. Counts of survivors are from the toxicity check (mostly the fifth day) where no day follows; animals may have died later. Some entries hold several experiments; the results are listed from low to high.

Test system: MX-1 breast xenograft, intrarenal, nude mice, tumor weight
Assay: NCI In Vivo Anticancer Drug Screen. Data for tumor model Human Mammary Carcinoma MX-1 Xenograft (intrarenal inoculation) in NU/NU BALB/C (nude) mice
Conditions: T/C endpoint: mean tumor weight change, higher T/C = larger tumour; for T/C: evaluated on day 11
Summary of the method: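 Mice w/ transplanted tumors, drug vs vehicle; endpoint survival or tumor size; value = T/C.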

[1] = dose: 24.0 mg/kg/injection, schedule: Q04DX003 (ip), vehicle: water

For `CC(=O)Nc1ccc(Nc2ccc(C(=C3C=CC(=[N+](C)CCC#N)C=C3)c3ccc(N(C)CCC#N)cc3)cc2)cc1`, the survivor count (dose: 400.0 mg/kg/injection, schedule: Q04DX003 (ip), vehicle: suspension in saline) was 0 of 6 on day 11 and the survivor count (dose: 800.0 mg/kg/injection, schedule: Q04DX003 (ip), vehicle: suspension in saline) was 0 of 6 on day 11.
`CC(C)NC(=O)N(CCCCBr)N=O` was tested, and the survivor count (dose: 600.0 mg/kg/injection, schedule: Q04DX003 (sc), vehicle: Klucel (hydroxypropylcellulose) (HPC)) was 0 of 3 on day 11 and the survivor count (dose: 1200.0 mg/kg/injection, schedule: Q04DX003 (sc), vehicle: Klucel (hydroxypropylcellulose) (HPC)) was 0 of 3 on day 11.
With `[N-]=[N+]=[N-]` the T/C (dose: 3.0 mg/kg/injection, schedule: Q04DX003 (ip), vehicle: water) was 136 % of control, the survivor count [1] was 0 of 6 on day 11 and the survivor count (dose: 48.0 mg/kg/injection, schedule: Q04DX003 (ip), vehicle: water) was 0 of 6 on day 11.
For `CCCCNP1(NCCCC)=NP(NCCCC)(NCCCC)=NP(NCCCC)(NCCCC)=NP(NCCCC)(NCCCC)=N1`, the survivor count (dose: 600.0 mg/kg/injection, schedule: Q04DX003 (ip), vehicle: saline with Tween-80) was 0 of 6 on day 11 and the survivor count (dose: 1200.0 mg/kg/injection, schedule: Q04DX003 (ip), vehicle: saline with Tween-80) was 0 of 6 on day 11.
`COc1cc2c(cc1OC)[C@@H]1C(=O)c3ccc4c(c3O[C@@H]1CO2)C[C@H](C(C)C)O4` was tested, and the survivor count (dose: 300.0 mg/kg/injection, schedule: Q04DX003 (ip), vehicle: Klucel (hydroxypropylcellulose) (HPC)) was 0 of 6 on day 11.
For `CC(=O)/C(=C\c1ccc(/C=C(\C(C)=O)C(=O)CCN(C)C)cc1)C(=O)CCN(C)C`, the T/C (dose: 400.0 mg/kg/injection, schedule: Q04DX003 (ip), vehicle: saline with Tween-80) was 126 % of control and the T/C (dose: 800.0 mg/kg/injection, schedule: Q04DX003 (ip), vehicle: saline with Tween-80) was 127 % of control.
With `C[C@]12CC[C@H](OC(=O)Cc3ccc(N(CCCl)CCCl)cc3)CC1=CC[C@@H]1[C@@H]2CC[C@]2(C)C(=O)CC[C@@H]12` the survivor count (dose: 2000.0 mg/kg/injection, schedule: Q04DX003 (ip), vehicle: saline with Tween-80) was 0 of 6 on day 11.
With `C=C(C)/C([O-])=N/[N+](C)(C)CC(O)CCCCCCCCCCCC` (stereo not drawn) the survivor count (dose: 640.0 mg/kg/injection, schedule: Q04DX003 (ip), vehicle: Klucel (hydroxypropylcellulose) (HPC)) was 0 of 6 on day 11.
In the case of `Cc1ccc(NN=O)nc1`, the survivor count (dose: 37.5 mg/kg/injection, schedule: Q04DX003 (ip), vehicle: water) is reported as 2 of 6 on day 11 and the survivor count (dose: 75.0 mg/kg/injection, schedule: Q04DX003 (ip), vehicle: water) is reported as 0 of 6 on day 11.
For `CC(C)(C[NH-])C[NH-].[Cl][Pt+2][Cl]`, the survivor count (dose: 12.0 mg/kg/injection, schedule: Q04DX003 (ip), vehicle: water) was 2 of 6 on day 11 and 3 of 6 on day 11 and the survivor count [1] was 1 of 6 on day 11.
In the case of `O=NNc1cnccn1`, the survivor count (dose: 200.0 mg/kg/injection, schedule: Q04DX003 (ip), vehicle: water) is reported as 0 of 6 on day 11.
For `CCOC(=O)[C@]1(Br)CC[C@@]1(Br)C(=O)OCC`, the survivor count (dose: 2400.0 mg/kg/injection, schedule: Q04DX003 (sc), vehicle: saline with Tween-80) was 1 of 6 on day 11.
With `COc1cccc2c1C(=O)c1c(O)c3c(c(O)c1C2=O)C[C@@](O)(C(=O)CO)C[C@@H]3OC1CC(N)C(O)C(C)O1` (stereo partly drawn) the survivor count (dose: 16.0 mg/kg/injection, schedule: Q04DX003 (ip), vehicle: water) was 0 of 6 on day 11.
For `NC(CCl)=NCC12CC3CC(CC(C3)C1)C2`, the T/C (dose: 18.75 mg/kg/injection, schedule: Q04DX003 (sc), vehicle: Klucel (hydroxypropylcellulose) (HPC)) was 135 % of control and the survivor count (dose: 150.0 mg/kg/injection, schedule: Q04DX003 (sc), vehicle: Klucel (hydroxypropylcellulose) (HPC)) was 2 of 6 on day 11.
With `CC1[C@@H]2CC=C3[C@H]4CCC5Cc6nc7c(nc6C[C@@]5(C)C4CC(=O)[C@]32CO[C@]12OC(C)(C)CC2O)CC1CC[C@@H]2C3=C[C@H]4O[C@@]5(O[C@@](C)(CO)C[C@@H]5O)C(C)[C@@]4(O)[C@]3(C)[C@@H](O)CC2[C@]1(C)C7` (stereo partly drawn) the survivor count (dose: 200.0 micrograms/kg/injection, schedule: Q04DX003 (ip), vehicle: saline + alcohol) was 3 of 6 on day 11.
In the case of `CS(=O)(=O)OCCCNCCCOS(C)(=O)=O`, the survivor count (dose: 150.0 mg/kg/injection, schedule: Q04DX003 (sc), vehicle: saline) is reported as 0 of 6 on day 11, the survivor count (dose: 300.0 mg/kg/injection, schedule: Q04DX003 (sc), vehicle: saline) is reported as 0 of 6 on day 11 and the survivor count (dose: 600.0 mg/kg/injection, schedule: Q04DX003 (sc), vehicle: saline) is reported as 0 of 6 on day 11.
With `COc1cc2c(cc1OC)-c1c3c(cc4c1[C@@H](C2)N(C)CC4)OCO3` the survivor count (dose: 300.0 mg/kg/injection, schedule: Q04DX003 (ip), vehicle: distilled water + alcohol) was 2 of 6 on day 11.
